These are yes or no findings as the source states them, for the method shown. For part of these data: In cells and extracts the contact can be indirect. Some results given as binding are weak or reduced against the parent protein; the word gives no strength. For part of these data: Sequences can lack the tags named with a protein. One block for each binder: values may come before it.
Experiments:
[1] = target: T1, YsdC (B. subtilis (endogenous in strain 168)) (UniProt P94521); test: cross-linking
T1 sequence: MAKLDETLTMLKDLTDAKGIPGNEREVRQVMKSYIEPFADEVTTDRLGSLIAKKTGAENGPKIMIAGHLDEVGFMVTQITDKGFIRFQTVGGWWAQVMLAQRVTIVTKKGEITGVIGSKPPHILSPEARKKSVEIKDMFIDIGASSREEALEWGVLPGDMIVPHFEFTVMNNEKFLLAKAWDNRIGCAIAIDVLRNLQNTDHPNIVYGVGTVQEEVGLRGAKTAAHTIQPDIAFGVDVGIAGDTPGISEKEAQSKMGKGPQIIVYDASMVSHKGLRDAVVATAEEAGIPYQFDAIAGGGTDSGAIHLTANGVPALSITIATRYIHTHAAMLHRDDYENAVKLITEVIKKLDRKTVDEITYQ

[2] = target: T2, PutC (B. subtilis (endogenous in strain 168)) (UniProt P94391); test: cross-linking
T2 sequence: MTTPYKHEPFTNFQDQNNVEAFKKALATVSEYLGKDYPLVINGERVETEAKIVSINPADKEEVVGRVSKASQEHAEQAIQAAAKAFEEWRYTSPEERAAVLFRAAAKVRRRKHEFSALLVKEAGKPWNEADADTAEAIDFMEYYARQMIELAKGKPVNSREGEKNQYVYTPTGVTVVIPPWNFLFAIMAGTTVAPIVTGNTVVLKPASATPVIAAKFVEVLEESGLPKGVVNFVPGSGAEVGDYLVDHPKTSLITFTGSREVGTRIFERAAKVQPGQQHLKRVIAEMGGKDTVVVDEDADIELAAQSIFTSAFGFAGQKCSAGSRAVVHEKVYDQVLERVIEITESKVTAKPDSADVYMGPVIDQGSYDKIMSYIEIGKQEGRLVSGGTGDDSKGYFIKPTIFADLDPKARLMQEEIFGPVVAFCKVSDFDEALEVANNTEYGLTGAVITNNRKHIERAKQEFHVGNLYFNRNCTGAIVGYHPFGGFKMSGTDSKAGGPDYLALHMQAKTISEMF

[3] = substrate: T3, B subunit of the glutamyl-tRNA amidotransferase (GatB) (B. subtilis (endogenous in strain 168)) (UniProt O30509); test: cross-linking
T3 sequence: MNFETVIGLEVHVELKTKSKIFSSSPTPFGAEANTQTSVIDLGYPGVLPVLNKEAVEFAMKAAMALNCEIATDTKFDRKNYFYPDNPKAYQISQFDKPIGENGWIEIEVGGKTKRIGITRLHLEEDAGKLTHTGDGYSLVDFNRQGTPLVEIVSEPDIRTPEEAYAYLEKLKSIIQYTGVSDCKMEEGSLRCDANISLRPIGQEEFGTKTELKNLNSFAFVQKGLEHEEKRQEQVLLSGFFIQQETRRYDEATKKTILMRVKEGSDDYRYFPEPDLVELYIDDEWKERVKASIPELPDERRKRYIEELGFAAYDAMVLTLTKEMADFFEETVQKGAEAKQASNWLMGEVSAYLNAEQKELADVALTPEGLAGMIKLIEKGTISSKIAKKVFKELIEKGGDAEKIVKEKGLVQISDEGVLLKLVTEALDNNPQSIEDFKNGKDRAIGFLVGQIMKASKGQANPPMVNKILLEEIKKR

[4] = target: T4, OpuAB (B. subtilis (endogenous in strain 168)) (UniProt P46921); test: cross-linking
T4 sequence: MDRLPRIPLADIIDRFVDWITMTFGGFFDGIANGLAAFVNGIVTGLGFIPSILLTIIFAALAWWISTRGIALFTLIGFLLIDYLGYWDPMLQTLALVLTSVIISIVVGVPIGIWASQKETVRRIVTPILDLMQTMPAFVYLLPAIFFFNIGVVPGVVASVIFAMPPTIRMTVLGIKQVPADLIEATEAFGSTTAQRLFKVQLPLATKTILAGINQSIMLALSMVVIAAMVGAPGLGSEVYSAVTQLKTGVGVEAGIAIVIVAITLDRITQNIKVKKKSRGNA

[5] = target: T5, AlaS, bacterial two-hybrid fusion (B. subtilis) (UniProt O34526); test: two-hybrid
T5 sequence: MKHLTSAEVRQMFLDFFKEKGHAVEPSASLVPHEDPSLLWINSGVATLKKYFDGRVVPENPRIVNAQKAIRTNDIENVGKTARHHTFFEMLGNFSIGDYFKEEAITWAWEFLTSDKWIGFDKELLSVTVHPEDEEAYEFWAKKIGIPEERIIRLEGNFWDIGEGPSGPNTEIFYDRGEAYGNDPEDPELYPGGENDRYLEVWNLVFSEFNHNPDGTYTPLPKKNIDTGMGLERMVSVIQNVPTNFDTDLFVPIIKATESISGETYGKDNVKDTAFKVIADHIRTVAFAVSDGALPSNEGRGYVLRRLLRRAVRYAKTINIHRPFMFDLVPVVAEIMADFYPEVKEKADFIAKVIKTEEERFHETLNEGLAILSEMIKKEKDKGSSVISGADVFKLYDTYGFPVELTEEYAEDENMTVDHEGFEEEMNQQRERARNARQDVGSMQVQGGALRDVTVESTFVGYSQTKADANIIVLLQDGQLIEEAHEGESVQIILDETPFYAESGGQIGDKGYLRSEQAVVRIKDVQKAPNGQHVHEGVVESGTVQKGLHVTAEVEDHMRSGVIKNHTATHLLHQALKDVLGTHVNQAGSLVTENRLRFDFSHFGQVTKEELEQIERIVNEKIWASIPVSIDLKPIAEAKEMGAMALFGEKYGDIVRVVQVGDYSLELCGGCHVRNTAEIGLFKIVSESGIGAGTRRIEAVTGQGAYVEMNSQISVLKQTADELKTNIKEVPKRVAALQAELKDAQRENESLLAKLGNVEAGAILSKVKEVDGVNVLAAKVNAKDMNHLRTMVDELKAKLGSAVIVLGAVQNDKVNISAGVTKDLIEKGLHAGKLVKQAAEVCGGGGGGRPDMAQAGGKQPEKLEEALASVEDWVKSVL

[6] = target: T6, LutB (B. subtilis (endogenous in strain 168)) (UniProt O07021); test: cross-linking
T6 sequence: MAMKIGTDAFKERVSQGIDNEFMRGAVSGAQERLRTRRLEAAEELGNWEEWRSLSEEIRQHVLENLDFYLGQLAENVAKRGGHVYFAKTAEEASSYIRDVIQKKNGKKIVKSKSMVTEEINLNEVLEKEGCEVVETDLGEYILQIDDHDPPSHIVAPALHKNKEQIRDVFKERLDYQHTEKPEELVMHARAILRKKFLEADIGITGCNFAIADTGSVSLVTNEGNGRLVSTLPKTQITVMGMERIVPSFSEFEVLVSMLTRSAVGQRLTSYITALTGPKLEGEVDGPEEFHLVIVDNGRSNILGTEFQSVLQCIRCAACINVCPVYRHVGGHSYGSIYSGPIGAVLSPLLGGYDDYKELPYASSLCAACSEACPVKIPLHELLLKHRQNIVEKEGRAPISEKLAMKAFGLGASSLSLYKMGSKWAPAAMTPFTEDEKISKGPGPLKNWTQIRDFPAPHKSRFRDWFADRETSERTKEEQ

binding [1]: binds
B1: YtoP (protein, UniProt O34924 1-357)
chain: MNQETKALFQTLTQLPGAPGNEHQVRAFMKQELAKYADDIVQDRLGSVFGVRRGAEDAPRIMVAGHMDEVGFMVTSITDNGLLRFQTLGGWWSQVLLAQRVEIQTDNGPVPGVISSIPPHLLTDAQRNRPMDIKNMMIDIGADDKEDAIKIGIRPGQQIVPVCPFTTMANEKKILSKAWDNRYGCGLSIELLKELHGKELPNTLYAGATVQEEVGLRGAQTASHMIKPDLFFALDASPANDMSGDKNEFGQLGKGFLLRILDRTTVMHRGMREFVLDMAETHDIPYQYFVSGGGTDAGKVHISNSGVPSAVIGICSRYIHTNATIIHIDDYAAAKEMLIKLVTACDKQTVDAIKENM

binding [2]: binds
B2: RocA (enzyme, UniProt P39634 1-515)
chain: MTVTYAHEPFTDFTEAKNKTAFGESLAFVNTQLGKHYPLVINGEKIETDRKIISINPANKEEIIGYASTADQELAEKAMQAALQAFDSWKKQRPEHRANILFKAAAILRRRKHEFSSYLVKEAGKPWKEADADTAEAIDFLEFYARQMLKLKEGAPVKSRAGEVNQYHYEALGVGIVISPFNFPLAIMAGTAVAAIVTGNTILLKPADAAPVVAAKFVEVMEEAGLPNGVLNYIPGDGAEIGDFLVEHPKTRFVSFTGSRAVGCRIYERAAKVQPGQKWLKRVIAEMGGKDTVLVDKDADLDLAASSIVYSAFGYSGQKCSAGSRAVIHQDVYDEVVEKAVALTKTLTVGNPEDPDTYMGPVIHEASYNKVMKYIEIGKSEGKLLAGGEGDDSKGYFIQPTIFADVDENARLMQEEIFGPVVAICKARDFDHMLEIANNTEYGLTGALLTKNRAHIERAREDFHVGNLYFNRGCTGAIVGYQPFGGFNMSGTDSKAGGPDYLILHMQAKTTSEAF

binding [3]: binds
B3: YtpR (protein, UniProt O34943 1-201)
chain: MNAFYNKEGVGDTLLISLQDVTREQLGYEKHGDVVKIFNNETKETTGFNIFNASSYLTIDENGPVALSETFVQDVNEILNRNGVEETLVVDLSPKFVVGYVESKEKHPNADKLSVCKVNVGEETLQIVCGAPNVDQGQKVVVAKVGAVMPSGLVIKDAELRGVPSSGMICSAKELDLPDAPAEKGILVLEGDYEAGDAFQF

binding [4]: binds
B4: OpuAA (protein, UniProt P46920 1-418)
chain: MSVDEKPIKIKVEKVSKIFGKQTKKAVQMLANGKTKKEILKATGSTVGVNQADFEVYDGEIFVIMGLSGSGKSTLVRMLNRLIEPTAGNIYIDGDMITNMSKDQLREVRRKKISMVFQKFALFPHRTILENTEYGLELQGVDKQERQQKALESLKLVGLEGFEHQYPDQLSGGMQQRVGLARALTNDPDILLMDEAFSALDPLIRKDMQDELLDLHDNVGKTIIFITHDLDEALRIGDRIVLMKDGNIVQIGTPEEILMNPSNEYVEKFVEDVDLSKVLTAGHIMKRAETVRIDKGPRVALTLMKNLGISSIYAVDKQKKLLGVIYASDAKKAAESDLSLQDILNTEFTTVPENTYLTEIFDVVSDANIPIAVVDEKQRMKGIVVRGALIGALAGNNEYINAEGTNEQTQDPSAQEVK

binding [5]: binds
B5: YozC, bacterial two-hybrid fusion (protein, UniProt O31848 1-67)
chain: MIHKNWLEKETIKKVKCVQTNAKKYIVNRVLTPGKEYEVKNETEEFLFVVDNTNKVGGYYKEYFEEM

binding [6]: binds
B6: LutA (protein, UniProt O07020 1-238)
chain: MKVSLFVTCLVDMFQTNVGKATVELLERLGCEVDFPEGQICCGQPAYNSGYVHDAKKAMKRMIETFQDSEYVVSPSGSCTTMFREYPHLFQDDPKWADKAKKLADKTYELTDFIVNVLGVEDVGATLHTKATLHTSCHMTRLLGVRKEPMKLLSHVKGLQFTELPGKHNCCGFGGTFSVKMAQISEQMVDEKVECVEETGAEVLIGADCGCLMNIGGRLGRKDKNVKVMHIAEVLNSR
